These are yes or no findings as the source states them, for the method shown. Binding seen in cells or lysates may run through a third protein. A yes stands for co-enrichment or nearness to the bait. Other partners may have been found. Tags and fused reporters may be left off the sequences shown.
T1: AtVIH2-mCit (pAtVIH2::AtVIH2-mCit fusion protein) (Arabidopsis thaliana) (UniProt F4J8C6)
T1 sequence: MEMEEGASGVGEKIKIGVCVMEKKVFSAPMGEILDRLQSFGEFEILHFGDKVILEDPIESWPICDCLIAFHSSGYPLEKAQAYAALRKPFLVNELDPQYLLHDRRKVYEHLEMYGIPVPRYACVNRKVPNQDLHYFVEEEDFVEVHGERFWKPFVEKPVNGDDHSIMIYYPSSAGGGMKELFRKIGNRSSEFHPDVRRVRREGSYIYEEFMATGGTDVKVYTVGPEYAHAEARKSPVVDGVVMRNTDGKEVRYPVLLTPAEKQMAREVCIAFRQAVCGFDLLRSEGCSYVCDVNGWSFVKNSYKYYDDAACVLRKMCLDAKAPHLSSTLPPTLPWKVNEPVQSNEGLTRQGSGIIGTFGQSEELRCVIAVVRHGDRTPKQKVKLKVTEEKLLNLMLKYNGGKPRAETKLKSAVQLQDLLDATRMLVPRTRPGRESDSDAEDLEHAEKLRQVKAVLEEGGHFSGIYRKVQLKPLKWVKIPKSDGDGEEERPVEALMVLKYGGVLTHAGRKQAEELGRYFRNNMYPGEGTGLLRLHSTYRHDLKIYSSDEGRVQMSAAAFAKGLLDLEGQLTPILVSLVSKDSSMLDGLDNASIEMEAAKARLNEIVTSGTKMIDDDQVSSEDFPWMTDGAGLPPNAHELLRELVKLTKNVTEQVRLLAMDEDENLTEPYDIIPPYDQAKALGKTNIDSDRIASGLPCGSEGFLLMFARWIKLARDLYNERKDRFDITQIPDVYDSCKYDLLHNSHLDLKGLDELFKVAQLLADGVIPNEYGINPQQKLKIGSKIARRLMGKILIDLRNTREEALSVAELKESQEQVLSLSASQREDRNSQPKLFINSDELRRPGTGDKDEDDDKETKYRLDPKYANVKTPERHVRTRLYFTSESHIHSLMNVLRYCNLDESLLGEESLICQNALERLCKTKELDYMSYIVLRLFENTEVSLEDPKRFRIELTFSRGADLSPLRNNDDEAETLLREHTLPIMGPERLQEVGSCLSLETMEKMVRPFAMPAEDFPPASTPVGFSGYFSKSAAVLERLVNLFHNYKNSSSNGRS

Protein sequences, listed by entry. Tags and fused reporters are not part of them.
UniProt Q9SSD2: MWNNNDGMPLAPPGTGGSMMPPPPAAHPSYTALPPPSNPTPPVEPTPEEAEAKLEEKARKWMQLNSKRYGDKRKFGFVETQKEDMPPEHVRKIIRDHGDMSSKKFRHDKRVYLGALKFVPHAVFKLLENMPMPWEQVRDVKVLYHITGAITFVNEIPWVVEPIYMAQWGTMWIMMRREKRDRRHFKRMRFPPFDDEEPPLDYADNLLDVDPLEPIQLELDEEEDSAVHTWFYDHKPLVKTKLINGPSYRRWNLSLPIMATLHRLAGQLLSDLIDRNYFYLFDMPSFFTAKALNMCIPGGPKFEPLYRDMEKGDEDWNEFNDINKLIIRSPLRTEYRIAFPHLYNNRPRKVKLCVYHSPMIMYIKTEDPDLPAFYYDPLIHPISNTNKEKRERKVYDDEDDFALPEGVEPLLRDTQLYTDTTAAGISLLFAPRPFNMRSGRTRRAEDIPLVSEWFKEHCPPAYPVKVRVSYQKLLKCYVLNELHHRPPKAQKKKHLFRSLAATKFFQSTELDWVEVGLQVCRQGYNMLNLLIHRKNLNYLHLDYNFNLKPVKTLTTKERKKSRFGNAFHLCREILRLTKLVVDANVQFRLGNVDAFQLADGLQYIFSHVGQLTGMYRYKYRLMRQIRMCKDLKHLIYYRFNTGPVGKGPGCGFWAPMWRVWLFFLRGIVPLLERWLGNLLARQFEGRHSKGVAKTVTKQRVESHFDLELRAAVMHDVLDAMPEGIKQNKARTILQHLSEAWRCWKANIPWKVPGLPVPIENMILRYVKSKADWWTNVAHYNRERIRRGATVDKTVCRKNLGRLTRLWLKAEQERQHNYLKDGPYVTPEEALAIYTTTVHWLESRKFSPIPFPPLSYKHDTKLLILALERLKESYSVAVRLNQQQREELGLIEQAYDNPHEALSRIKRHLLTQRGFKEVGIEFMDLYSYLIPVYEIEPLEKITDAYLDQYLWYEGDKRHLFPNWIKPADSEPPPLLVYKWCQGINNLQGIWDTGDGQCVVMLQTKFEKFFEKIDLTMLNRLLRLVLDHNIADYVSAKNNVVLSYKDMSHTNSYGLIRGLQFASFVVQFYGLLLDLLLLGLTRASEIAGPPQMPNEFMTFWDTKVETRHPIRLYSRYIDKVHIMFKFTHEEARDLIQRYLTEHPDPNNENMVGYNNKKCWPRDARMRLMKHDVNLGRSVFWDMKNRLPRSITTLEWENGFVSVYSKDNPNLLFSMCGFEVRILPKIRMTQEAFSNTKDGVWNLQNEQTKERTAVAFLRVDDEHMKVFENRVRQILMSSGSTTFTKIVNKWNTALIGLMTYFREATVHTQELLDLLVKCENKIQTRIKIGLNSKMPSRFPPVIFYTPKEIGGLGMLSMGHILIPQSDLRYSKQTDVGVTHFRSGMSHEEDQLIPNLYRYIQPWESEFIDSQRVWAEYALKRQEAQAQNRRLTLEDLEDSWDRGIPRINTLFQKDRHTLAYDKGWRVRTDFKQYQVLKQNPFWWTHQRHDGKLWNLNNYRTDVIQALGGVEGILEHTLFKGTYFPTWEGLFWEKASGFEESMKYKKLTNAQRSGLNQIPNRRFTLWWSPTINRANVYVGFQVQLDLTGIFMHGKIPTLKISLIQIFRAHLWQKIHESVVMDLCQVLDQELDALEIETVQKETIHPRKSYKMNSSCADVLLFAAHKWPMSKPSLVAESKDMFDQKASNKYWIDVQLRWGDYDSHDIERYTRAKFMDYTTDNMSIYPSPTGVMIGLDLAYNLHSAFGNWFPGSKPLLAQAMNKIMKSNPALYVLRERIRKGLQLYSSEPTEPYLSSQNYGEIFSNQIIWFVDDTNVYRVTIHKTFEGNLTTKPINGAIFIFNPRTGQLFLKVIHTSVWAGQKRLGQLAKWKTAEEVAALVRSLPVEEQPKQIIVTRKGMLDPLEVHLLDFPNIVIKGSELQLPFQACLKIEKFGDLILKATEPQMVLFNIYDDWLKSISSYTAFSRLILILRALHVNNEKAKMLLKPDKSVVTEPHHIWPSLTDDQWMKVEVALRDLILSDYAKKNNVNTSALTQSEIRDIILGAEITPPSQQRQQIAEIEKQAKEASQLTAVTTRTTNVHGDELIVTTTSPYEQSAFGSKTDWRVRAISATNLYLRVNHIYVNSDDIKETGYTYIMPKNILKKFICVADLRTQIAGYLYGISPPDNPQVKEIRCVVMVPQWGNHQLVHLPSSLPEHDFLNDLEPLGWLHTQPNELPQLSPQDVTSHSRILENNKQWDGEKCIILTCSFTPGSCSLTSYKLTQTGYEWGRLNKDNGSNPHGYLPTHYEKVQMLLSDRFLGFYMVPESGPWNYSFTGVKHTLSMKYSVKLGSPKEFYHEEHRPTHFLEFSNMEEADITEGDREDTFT

B1: AtLOS4, endogenous (protein, UniProt Q93ZG7 1-496)
chain: MADTVEKVPTVVESSSSSTVEASNSAEKTEPTTEKKKWGDVEDDDDEEEAVSELNSLSIKEEEKPDSILEEPEDSNIKAVTSGDTPYTSASRFEDLNLSPELMKGLYVEMKFEKPSKIQAISLPMIMTPPHKHLIAQAHNGSGKTTCFVLGMLSRVDPTLREPQALCICPTRELANQNMEVLQKMGKFTGITAELAVPDSTRGAPAATRGAPVSAHVVIGTPGTLKKWMAFKRLGLNHLKILVFDEADHMLATDGFRDDSLKIMKDIGRVNPNFQVLLFSATFNETVKDFVARTVKDPNQLFVKREDLALDSVKQYKVVCPKEQNKIEVIKDQIMELGDIGQTIIFVKTKASAQKVHKALAEMGYDVTSVHGNLTESDRDKIVKEFKECLTQVLIATDVIARGFDQQRVNLVVNYNLPTKYETGEPDYEVYLHRVGRAGRFGRKGAVFNLLLDDGWDKEVMEKIEKYFEANVKEIKSWNSEEEYKSALKEAGLLDE
B2: AtNAA15, endogenous (protein, UniProt Q8VZM1 1-897)
chain: MGASLPPKEANLFKLIVKSYETKQYKKGLKAADAILKKFPDHGETLSMKGLTLNCMDRKTEAYELVRLGVKNDIKSHVCWHVLGLLYRSDREYREAIKCYRNALRIDPDNLEILRDLSLLQAQMRDLSGFVETRQQLLTLKPNHRMNWIGFAVSQHLNANASKAVEILEAYEGTLEDDYPPENELIEHTEMILYKVSLLEESGSFDKALEELHKKEPKIVDKLSYKEQEVSLLSKVGRLEEANKLYRVLLSMNPDNYRYHEGLQKCLGLYSESGQYSSDQIEKLNALYQSLSEQYTRSSAVKRIPLDFLQDENFKEAVAKYIKPLLTKGVPSLFSDLSSLYDHPRKPDILEQLVVEMKHSIGTTGSFPGSDVKEPPSTLLWTLFFLAQHYDRRGQYDVALCKIDEAIAHTPTVIDLYSVKSRIMKHAGDLTAAAALADEARGMDLADRYINSECVKRMLQADQVPLAEKTAVLFTKEGDQLNNLHDMQCMWYDLASGDSYFRQGDLGRALKKFLAVEKHYADISEDQFDFHSYCLRKMTLRSYVDMLKFQDRLHSFPYFHKAAIRAIRCYLKLHDSPKSTAGEDEMSKLAPAQKKKIKKQKKAEARAKKEAESKSEESTASGASKSGKRNVKPVDPDPHGQKLIQVEEPMAEASKYLRLLQKHSPNSLETHLLSFEVNMRKQKFLLAFQAVKQLLKLGAENPDSHRSLVKFFLMTESISAPTTEAEKLRWRVLEAERPSISQLQNKSLMEANKEFLGRHEDSLVHRAAYAEMLYILDPSKKTEAIKIIEDSTNKVVQTNEALGQAREWKLKDCIAVHTLLDTVLLDSQAASRWKSRCAEYFPCSTHFEGKHCSLMPDSVYNSSRKSNENGDTPNHPMGQTELSDGQLEAFKSLSVAT
B3: casein kinase II α-subunit isoform 1 (AtCKA1), endogenous (enzyme, UniProt Q08467 37-409)
chain: PILRSSIVTPTARAVSEVSGCTTIDPDFLVEISDSNQTRAMSKARVYTEVNVIRPKDYWDYESLIVQWGEQDDYEVVRKVGRGKYSEVFEGINVNSKEKCIIKILKPVKKKKIRREIKILQNLCGGPNIVKLLDVVRDQHSKTPSLIFEYVNSTDFKVLYPTLTDYDIRYYIYELLKALDFCHSQGIMHRDVKPHNVMIDHELRKLRLIDWGLAEFYHPGKEYNVRVASRYFKGPELLVDLQDYDYSLDMWSLGCMFAGMIFRKEPFFYGHDNQDQLVKIAKVLGTDELNAYLNKYQLELDPQLEALVGRHSRKPWSKFINADNQHLVSPEAIDFLDKLLRYDHQDRLTAKEAMAHAYFAQVRAAETSRMRSQ

biological target: T1, AtVIH2-mCit (pAtVIH2::AtVIH2-mCit fusion protein) (Arabidopsis thaliana); experiment: affinity purification with mass spectrometry

binding	Molecule
binds	AtPRP8A, endogenous (from UniProt Q9SSD2 1-2359)
binds	B1
binds	B2
binds	B3

From doi:10.1101/2025.11.27.691040 (bioRxiv, 2025)
